In PubChem BioAssay AID488835 (Broad Institute, 2010):
Screen size: about 1,400 compounds; about 140 (10%) were called active.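 The calls were made as follows: active = Half-maximal inhibitory dose from the fit at or below ten times the top valid tested dose; inconclusive = Invalid fit, or flat curve showing 30 to 70% inhibition; inactive = the rest.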 This is a selection; strong and weak results do not stand in their true shares. Results with a measured potency or affinity are listed apart.

Protein sequences, listed by entry. Tags and fused reporters are not part of them. Residues count along the entry.
UniProt Q9H3R0, 1-420 limits assumed: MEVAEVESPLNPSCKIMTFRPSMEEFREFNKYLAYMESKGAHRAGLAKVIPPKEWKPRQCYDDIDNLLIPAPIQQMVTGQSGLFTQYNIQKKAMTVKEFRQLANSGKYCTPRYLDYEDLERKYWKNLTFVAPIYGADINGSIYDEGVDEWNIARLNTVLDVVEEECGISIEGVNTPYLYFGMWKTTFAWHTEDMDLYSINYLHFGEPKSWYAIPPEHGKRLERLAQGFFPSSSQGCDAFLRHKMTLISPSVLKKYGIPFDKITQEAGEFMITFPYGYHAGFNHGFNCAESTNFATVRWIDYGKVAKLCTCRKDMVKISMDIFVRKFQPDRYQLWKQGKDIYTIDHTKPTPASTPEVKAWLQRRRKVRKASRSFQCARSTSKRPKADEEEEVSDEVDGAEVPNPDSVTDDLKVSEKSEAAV

Each compound was assayed against Lysine-specific demethylase 4C (Homo sapiens) (UniProt Q9H3R0) (assay: GASC-1 (JMJD2C) histone demethylase inhibitors, dose response, biochemical, DELFIA europium, cherry-picked samples (AID 488835;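 also: signal is the H3K9me2 demethylation product detected by a dimethyl-specific antibody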)). Conditions: GST-JMJD2C(1-420), H3K9me3 demethylation; at 6 µM (top of the series) unless noted.

Activity change, negative = inhibition, inactive:
Cc1ccc(S(=O)(=O)N2CCOCC2)cc1NC(=O)COC(=O)c1cc(=O)[nH]c2ccccc12 -7.07%
CCCCN1CC[C@H]2C=CC[C@@H](C(=O)Nc3ccc(OC)cc3)[C@H]2C1=O 8.42%
COc1ccccc1CNC(=O)COc1ccc(S(=O)(=O)N2CCOCC2)cc1C -1.32%
Cc1ccc(/C(N)=N/OC(=O)CCC2CCCCC2)cc1 2.9%
CCN(CC)C(=O)[C@H]1CC(CC(=O)NCc2cccc(C(F)(F)F)c2)C(=O)N2CCc3c([nH]c4ccccc34)[C@]12C (some centres not stated) -2.44%
CCNC(=O)c1ccc2c(c1)S(=O)(=O)c1ccccc1C2=O -10.2%
COc1ccc(S(=O)(=O)Nc2ccc3c(c2)CC(=O)N([C@@H](C)CO)C[C@H](C)[C@@H](CN(C)S(=O)(=O)c2ccc(F)cc2)O3)cc1 -9.86%
N=C1C(c2nc3ccccc3s2)=C(O)CN1Cc1ccccc1 -5.43%
COc1ccc(/C=N/NS(=O)(=O)c2ccc(NC(C)=O)cc2)cc1 2.82%
COc1cc([N+](=O)[O-])ccc1NC(=O)CSc1nccn1C 9.26%
Cc1cccc(NCc2ccc(O)c3ncccc23)c1 10.8%
O=C(NCCNc1ccc([N+](=O)[O-])cc1C(F)(F)F)c1ccccc1 5.47%
O=C(Nc1c(F)cc(F)cc1Br)c1ccco1 -0.923%
O=C(NNC(=O)c1cccnc1Cl)c1ccc(F)cc1 0.449%
Cc1ccc(-c2nnc(SC(C)C(=O)NCC3CCCO3)nc2-c2ccc(C)cc2)cc1 (configuration not stated) 2.1%
C[C@H](CO)N1C[C@H](C)[C@H](CN(C)Cc2ccc(Oc3ccccc3)cc2)Oc2ccc(NC(=O)Nc3cccc4ccccc34)cc2CC1=O -7.19%
Cc1c(C(=O)NCc2cccs2)oc2ccccc12 4.33%
CCn1c(=O)c(-c2nc3ccccc3[nH]2)c(O)c2ccccc21 -0.309%
OC[C@H]1O[C@@H]2O[C@H]3[C@H](O)[C@@H](O)[C@@H](O[C@H]4[C@H](O)[C@@H](O)[C@@H](O[C@H]5[C@H](O)[C@@H](O)[C@@H](O[C@H]6[C@H](O)[C@@H](O)[C@@H](O[C@H]7[C@H](O)[C@@H](O)[C@@H](O[C@H]1[C@H](O)[C@H]2O)O[C@@H]7CO)O[C@@H]6CO)O[C@@H]5CO)O[C@@H]4CO)O[C@@H]3CO 0.497%
Cc1noc(C)c1COc1ccc(C(=O)OC(C)C(=O)Nc2ccc(N3CCOCC3)cc2)cc1 (configuration not stated) 3.93%
Cc1cccc(NC(=O)C2CCCN(S(=O)(=O)c3c(C)nn(C)c3C)C2)n1 (configuration not stated) 3.35% [at 1.6 µM]
O=C(NCc1ccccc1Br)c1cccc2c1C(=O)c1ccc(N3CCC(Cc4ccccc4)CC3)cc1S2(=O)=O -3.9%
Cc1ccc(NC(=O)c2cccc3c2C(=O)N(C2CCCCC2)C3)c(C)c1 8.82%
O=C(CCN1C(=O)/C(=C/c2ccc(F)cc2)SC1=S)N[C@@H](CO)Cc1ccccc1 8.35%
C[C@H](CO)N1C[C@H](C)[C@@H](CN(C)S(=O)(=O)c2cccs2)Oc2c(NC(=O)CCC(F)(F)F)cccc2C1=O 1.77%
Cn1nnnc1SCC(=O)NCC(=O)c1ccccc1 6.65%
CC(C)NC(=O)N(C)C[C@H]1Oc2ccc(NS(=O)(=O)c3ccccc3)cc2C(=O)N([C@H](C)CO)C[C@H]1C 6.68%
Cc1ccc(CONC(=O)c2cccc([N+](=O)[O-])c2)cc1 6.3%
CC(=O)Nc1ccc(NC(=O)Cn2cnc3c(cnn3C(C)(C)C)c2=O)cc1 0.153%
Cc1ccc(C(=O)CN2C(=O)C(=O)N(Cc3ccccc3)C2=O)cc1 1.89%
CC/C(=C/c1sc2ccc(C)cc2[n+]1CCCS(=O)(=O)[O-])SC -0.783%
N#Cc1nc(COc2ccccc2F)oc1NCCCn1ccnc1 1.41%
O=C(/C=C/c1ccc2c(c1)OCO2)NCCS(=O)(=O)N1CCN(c2ccc(F)cc2)CC1 -1.44%
O=C1c2ccc([N+](=O)[O-])cc2C(=O)N1Cc1cccnc1 7.52%
CSC1=N/C(=C\C=C\c2cccs2)C(=O)S1 -5.46%
C[C@@H]1CN([C@@H](C)CO)C(=O)c2cc(NC(=O)CCN3CCOCC3)ccc2O[C@@H]1CN(C)C(=O)Nc1ccccc1 -6.36%
COc1cccc(OC)c1C(=O)NC(=S)N1CCOCC1 6.62%
O=C(NCc1cccc(Cl)c1)c1cnn2c1NC(c1ccco1)CC2C(F)(F)F (configuration not stated) 2.78%
COc1ccccc1-c1nc(C#N)c(NCc2ccc(F)cc2)o1 -3.18%
O=C(Cc1cccc2ccccc12)N1CCCc2ccccc21 0.877%
COc1ccc(S(=O)(=O)NCCCCC(=O)O)cc1C(=O)O 7.07%
COc1cc(C)c(/C=C(\C#N)C(=O)Nc2ccc(C)cc2)cc1C(C)C 4.53%
CCOCCc1nnc(NC(=O)c2ccc(OC)c(OC)c2)s1 5.7%
COC(=O)c1cc(S(=O)(=O)NCCCN2CCCC2=O)cn1C 2.12%
Cc1cc(-n2c(SCC(=O)NCc3cccs3)nc3n[nH]c(C)c3c2=N)ccc1Cl 4.17%
COc1ccc(CCNC(=O)c2ccc(N3CCCCS3(=O)=O)cc2)cc1OC 4.22%
C[C@H](CO)N1C[C@H](C)[C@@H](CN(C)Cc2ccc(Cl)c(Cl)c2)Oc2c(NS(=O)(=O)c3cccs3)cccc2C1=O -1.37%
CCCNC(=S)Nc1ccc(Nc2ccccc2)cc1 1.91%
CC(NC(=O)NNC(N)=S)(C(F)(F)F)C(F)(F)F 1.79%
Cc1ccc(S(=O)(=O)NCCC(=O)OCC(=O)Nc2ccccc2Cl)cc1 3.94%
Cc1nc2cc(CO)ccc2n1C 0.194%
O=C1CCN(Cc2ccc(O)cc2)CCN1[C@H](CO)Cc1ccccc1 0.619%
COC(=O)c1cc(NC(=O)CSc2nncn2C)cc(C(=O)OC)c1 1.74%
CN(C)S(=O)(=O)c1cccc(NC(=S)NCc2ccc3c(c2)OCO3)c1 1.74%
C[C@@H]1CN([C@H](C)CO)C(=O)c2cccc(NS(=O)(=O)c3ccccc3)c2O[C@H]1CN(C)C -2.01%
O=C(Cn1cncn1)NCc1cc(F)ccc1F 2.09%
O=C(NCC1CCCO1)c1ccc2c(=O)n(Cc3cccc(Br)c3)c(=S)[nH]c2c1 (configuration not stated) 10.2%
O=C(NCCCN1CCOCC1)c1cccc(S(=O)(=O)N2CCc3ccccc3C2)c1 7.38%
COc1ccccc1-n1cnnc1SCC(=O)Nc1ncc(Cl)cc1Cl -7.89% [at 1.6 µM]
CCCC(=O)Nc1nn(C)c2nc3c(C)cccc3cc12 -4.26%
C[C@@H]1CN([C@H](C)CO)C(=O)c2cc(NC(=O)Nc3ccc(C(F)(F)F)cc3)ccc2O[C@H]1CN(C)S(=O)(=O)c1ccccc1 2.71%
CC(C)(C)OC(=O)N[C@@H](Cc1ccccc1)C(=O)N[C@@H](CO)[C@H](O)[C@@H]1C[C@@H]1C(=O)NC1CCCCC1 -6.41%
Cc1cc(C)c(NC(=O)CS(=O)CC(=O)Nc2ccc(F)cc2F)c(C)c1 (configuration not stated) 0.49% [at 1.6 µM]
CC(C)N(C(=O)[C@H]1CC(CC(=O)NCc2cccc(C(F)(F)F)c2)C(=O)N2CCc3c([nH]c4ccccc34)[C@]12C)C(C)C (some centres not stated) 3.1%
CC(O)CNc1nc2ccccc2n1CC(=O)NC12CC3CC(CC(C3)C1)C2 (configuration not stated) 2.35%
O=C(NCc1ccccn1)c1ccc(OC2CCN(Cc3cccs3)CC2)cc1 0.274%
CC(=O)c1sc(NC(=O)c2ccc(C)cc2)nc1C 1.55%
CCN(CC)C(CNS(=O)(=O)c1ccc(Cl)cc1)c1ccccc1 (configuration not stated) -2.47%
O=C(N/N=C/c1nn(-c2ccccc2)cc1-c1ccccc1)c1ccncc1 0.372%
CCn1c(SCC(=O)N2CCc3ccccc32)nnc1-c1ccco1 9.2%
COc1ccc(NC(=O)Nc2cccc3c2O[C@H](CN(C)C(=O)NC(C)C)[C@@H](C)CN([C@H](C)CO)C3=O)cc1 4.2%
CCOC(=O)CSc1nc2sc(C)c(C)c2c(=O)[nH]1 -3.88%
CSC1=NCCN1C(=O)c1cccc(C(F)(F)F)c1 -2.7%
Cc1cccc(N2CC(C(=O)Nc3nnc(SCC(=O)Nc4nccs4)s3)CC2=O)c1 (configuration not stated) -2.27%
CC1=NN(c2nc(-c3ccc(C#N)cc3)cs2)C(=O)C1 -1.21%
CC(C)(C)NC(=O)CSc1nc2cccnc2n1C1CCCCC1 -2.77% [at 1.6 µM]
Cc1sc2ncnc(NCCCO)c2c1C 5.97%
Cc1cccc(C)c1NS(=O)(=O)c1cc2c3c(c1)CC(=O)N3CCC2 3.44%
CCn1cnc2sc(C(=O)Nc3ccc4c(c3)OCO4)c(C)c2c1=O -3.87%
O=C(Nc1cccnc1)c1ccccc1Oc1ccccc1 6.39%
COc1cc2[nH]c(=O)n(CCCCCC(=O)NCCCN3CCCC3=O)c(=O)c2cc1OC 1.31%
Cc1sc2nc(CN3CCOCC3)nc(NS(=O)(=O)c3cc(Cl)ccc3Cl)c2c1C 2.96%

Reprinted from the listing (5 entries):
Activity change, negative = inhibition, inactive:
C[C@@H]1CN([C@H](C)CO)C(=O)c2cc(NC(=O)Nc3ccc(C(F)(F)F)cc3)ccc2O[C@H]1CN(C)S(=O)(=O)c1ccccc1 2.71%
CC(C)(C)OC(=O)N[C@@H](Cc1ccccc1)C(=O)N[C@@H](CO)[C@H](O)[C@@H]1C[C@@H]1C(=O)NC1CCCCC1 -6.41%
Cc1cc(C)c(NC(=O)CS(=O)CC(=O)Nc2ccc(F)cc2F)c(C)c1 (configuration not stated) 0.49% [at 1.6 µM]
CC(C)N(C(=O)[C@H]1CC(CC(=O)NCc2cccc(C(F)(F)F)c2)C(=O)N2CCc3c([nH]c4ccccc34)[C@]12C)C(C)C (some centres not stated) 3.1%
CC(O)CNc1nc2ccccc2n1CC(=O)NC12CC3CC(CC(C3)C1)C2 (configuration not stated) 2.35%
